# Small-molecule microarray binding calls

Source: the ROBIN nucleic acid binder screens (doi:10.1002/anie.202211358).

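Compounds were printed on reactive glass slides in duplicate spots, a dye-labelled oligonucleotide was laid over them, and the fluorescence left after washing was read. The data file lists only calls. An earlier report of the laboratory on the PreQ1, TPP and SAM-II riboswitches (doi:10.1038/s41467-019-09493-3) used 1 µM RNA for 2 h and required a mean Z-score above 3 (spot signal-to-noise against the whole library), a score well above that on a control array, and duplicate spots agreeing (coefficient of variation under 100); it then also set aside compounds that hit other targets, which this list keeps. The cut-offs behind this list may differ. The calls come from the array alone, and fixing a compound to the slide can hide its binding.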
Key: hit = hit, none = tested without a hit.
Compounds were drawn at random from those tested, without regard to their results.
A dash means that no call is listed here.

Targets, with sequences 5′ to 3′:
T1: SAM-II riboswitch RNA pseudoknot, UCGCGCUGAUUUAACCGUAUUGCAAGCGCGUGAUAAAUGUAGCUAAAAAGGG. About 21,000 compounds screened, about 200 hits.
T2: PreQ1 riboswitch RNA pseudoknot, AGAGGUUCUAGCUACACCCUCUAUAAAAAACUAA. From B. subtilis. About 24,000 compounds screened, about 170 hits.
T3: TPP riboswitch RNA three-way junction, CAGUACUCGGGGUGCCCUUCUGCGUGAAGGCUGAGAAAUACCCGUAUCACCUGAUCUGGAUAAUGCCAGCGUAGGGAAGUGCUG. About 24,000 compounds screened, about 160 hits.

| SMILES | T1 | T2 | T3 |
|---|---|---|---|
| `O=S(Cc1ccc(Cl)cc1)CC(O)COCc1ccc(Cl)cc1` (configuration not stated) | none | none | none |
| `COC(=O)c1cc(-c2cc(-c3ccc(CO)o3)c(C#N)c(N)n2)c(C)o1` | none | none | none |
| `CCOc1cc(CNCc2cccnc2)cc(Cl)c1OCc1cccs1` | hit | none | hit |
| `Cc1nc2sc(C(=O)c3ccccc3)c(N)c2c(C)c1C(=O)Nc1ccccc1` | none | none | none |
| `CC(=O)N1CCc2cc(C(O)CN3CCN(c4cc(Cl)ccc4C)CC3)ccc21` (configuration not stated) | none | none | none |
| `Cc1cccc(N2CC(c3nc4ccccc4n3CC(O)COc3ccccc3C)CC2=O)c1` (configuration not stated) | - | none | none |
| `CCNc1oc(-c2ccc(S(=O)(=O)N(C)Cc3ccccc3)cc2)nc1C#N` | - | none | none |
| `COC(=O)c1c(-c2ccccc2)[nH]c(-c2nccc3ccccc23)c1C(=O)OC` | none | none | none |
| `CC1(C)CC(=O)c2nnn(-c3nonc3N)c2C1` | none | none | none |
| `CCC(CO)N(Cc1cccnc1)C(=O)CCCc1cccs1` (configuration not stated) | none | none | none |
| `OC1(CNCc2c(F)ccc(Cl)c2F)CCCNC1` (configuration not stated) | none | none | none |
| `Nc1ccc(S(=O)(=O)Nc2cccc3cccnc23)cc1` | none | none | none |
| `Cc1c(Cl)c(C(=O)N2CCCC(O)(CO)CC2)nn1C` (configuration not stated) | none | none | none |
| `Cc1ccc(C)c(OCCN(C)C(=O)c2cc3ncc(CCO)cn3n2)c1` | none | none | none |
| `O=C(c1cccnc1)N1C[C@@H]2CC[C@H](C1)N(CCCCCCO)C2` | none | none | none |
| `COC(=O)C(CCSC)Nc1c([N+](=O)[O-])cc(C(=O)O)cc1[N+](=O)[O-]` (configuration not stated) | none | none | none |
| `COCCN(C)C[C@H]1C[C@H](CO)CN(c2ncccc2C(F)(F)F)C1` | none | none | none |
| `CC1=CC(=C2C=CC(=O)C=C2)C=C(C)N1C` | none | none | none |
| `O=c1n(Cc2ccc3c(c2)OCO3)nc(C2CCNCC2)n1-c1ccccc1` | none | none | none |
| `Nc1c(-c2nc(-c3ccncc3)no2)nnn1-c1ccc(Br)cc1` | - | none | none |
| `COc1cc2nc(N3CCN(C(=O)C4COc5ccccc5O4)CC3)nc(N)c2cc1OC` (configuration not stated) | none | none | none |
| `COCc1cc(C)nc2sc(C#N)c(N)c12` | none | none | none |
| `Nc1c(-c2nc(-c3ccc(Br)cc3)no2)nnn1-c1cccc(C(F)(F)F)c1` | - | none | none |
| `O=C(NCc1cccnc1Oc1ccccc1F)c1ccc(CO)o1` | none | none | none |
| `N#Cc1c(N)nc2c(c1-c1cccc(Br)c1)CCCCC2` | none | none | none |
| `N#CNC(=NCCCCCCOc1ccc(Cl)cc1)Nc1ccncc1` | none | none | none |
| `Cc1[nH]c2ccc(Cl)cc2c1CCNc1ncnc2c1CCNC2` | none | none | none |
| `Cc1noc(C)c1CN1CCn2nc(CCC(=O)NCCO)cc2C1` | none | none | none |
| `Cc1ccc(-c2cccc(CN3CCCC(O)(CO)CC3)c2)o1` (configuration not stated) | none | none | none |
| `O=C(CCNc1ccc(Cc2ccncc2)cc1)c1cc2ccccc2o1` | none | none | none |
| `Cc1ccccc1NCc1nc2ccccc2n1CCOc1ccccc1` | none | none | none |
| `Cc1nccnc1N1C[C@H](NC(=O)C2(N)CC2)[C@@H](C(C)C)C1` | none | none | none |
| `COc1cccc2c1OCCCN(c1nc(N(C)C)nc3c1CCNC3)C2` | none | none | none |
| `COC(=O)[C@@H]1C[C@@H](O)CN1Cc1ccc(C(=O)Nc2nnc(C)s2)cc1` | none | none | none |
| `CSCCC(O)C(=O)NCc1cc2n(n1)CCCN(S(C)(=O)=O)C2` (configuration not stated) | none | none | none |
| `Cc1ccc2sc(-c3ccc(NCc4ccncc4)cc3)nc2c1` | none | none | none |
| `CCNc1c(NS(C)(=O)=O)c(=O)oc2ccccc12` | none | none | none |
| `COc1ccc(-c2ccc3c(N)c(C(=O)NCCc4ccc(OC)c(OC)c4)sc3n2)cc1` | none | none | none |
| `Cc1ccc(C(C)CCN2CCC3(CC2)Nc2ccccc2NC3=O)o1` (configuration not stated) | none | none | none |
| `COc1ccc(C(O)Cc2nc3ccccc3n2C)cc1OC` (configuration not stated) | none | none | none |
| `CN1CC2(CCN(C(=O)C3Cc4cc(Cl)ccc4N3)CC2)CC1=O` (configuration not stated) | none | none | none |
| `Nc1nc(CSc2ccccn2)nc(Nc2ccccc2)n1` | none | none | none |
| `Cc1ccc(-c2nc3nc(C)cc(N(C)CCO)n3n2)cc1` | - | none | none |
| `Cc1ccc(N2C(=O)CC(Nc3ccc(N4CCCCC4)cc3)C2=O)cc1` (configuration not stated) | none | none | none |
| `Cc1nc(NCc2ccccc2F)ncc1C(=O)O` | none | none | none |
| `CCOc1ccccc1NC(=O)c1nccnc1CO` | none | none | none |
| `CSCc1nc(CCNCC2(O)CCCNC2)cs1` (configuration not stated) | none | none | none |
| `CCC1(C(=O)OC)CCc2c(cc(OC)c3ccccc23)C1=O` (configuration not stated) | none | none | none |
| `CS(=O)(=O)NCCCCNc1ccc(C(F)(F)F)cc1[N+](=O)[O-]` | none | none | none |
| `Cc1ccc2nc(-c3cc(N)ccc3Cl)oc2c1` | none | none | none |
| `CC(C)Oc1ccc(CNC2CCOC(C)(C)C2)cc1.Cl` (configuration not stated) | none | none | none |
| `Cc1ccccc1Cn1c(=N)n(CCO)c2ccccc21` | none | none | none |
| `Cc1nc2c(-c3ccccc3)cnn2c(NCCN(C)C)c1C` | - | none | none |
| `c1ccc(SCCNC2CCOC3(CCOCC3)C2)nc1` (configuration not stated) | none | none | none |
| `O[C@@H]1CN(Cc2cccn2-c2ccccn2)CC[C@H]1c1ccc2c(c1)OCO2` | none | none | none |
| `CO[C@@]12[C@H](COC(N)=O)C3=C(C(=O)C(C)=C(N)C3=O)N1C[C@@H]1N[C@H]12` | none | none | none |
| `CCNC(=O)CN1CCN(C(=O)c2sc(N)nc2CC)CC1` | none | none | none |
| `CC(c1ccc(-c2ccc(-c3nnc(N)s3)cc2)cc1)N1CCOCC1` (configuration not stated) | hit | none | none |
| `CNc1oc(-c2ccccc2)nc1C#N` | none | none | none |

7 of the entries, repeated:

SMILES,T1,T2,T3
CSCCC(O)C(=O)NCc1cc2n(n1)CCCN(S(C)(=O)=O)C2 (configuration not stated),none,none,none
Nc1c(-c2nc(-c3ccncc3)no2)nnn1-c1ccc(Br)cc1,-,none,none
COc1cc2nc(N3CCN(C(=O)C4COc5ccccc5O4)CC3)nc(N)c2cc1OC (configuration not stated),none,none,none
Cc1[nH]c2ccc(Cl)cc2c1CCNc1ncnc2c1CCNC2,none,none,none
Cc1ccc(C)c(OCCN(C)C(=O)c2cc3ncc(CCO)cn3n2)c1,none,none,none
CCOc1ccccc1NC(=O)c1nccnc1CO,none,none,none
CC(=O)N1CCc2cc(C(O)CN3CCN(c4cc(Cl)ccc4C)CC3)ccc21 (configuration not stated),none,none,none